Experimental data as given in article PMC5770620.
Results are given in words; binding and its absence hold for the method and conditions named. In cells and extracts the contact can be indirect. Binding calls can cover weak binding; strength is not graded here. Sequences can lack the tags named with a protein.

Amino acid sequences for entries named in this document (tags omitted). A change or cut given only in a name is not applied to a line headed by its entry.
UniProt A6T5D4: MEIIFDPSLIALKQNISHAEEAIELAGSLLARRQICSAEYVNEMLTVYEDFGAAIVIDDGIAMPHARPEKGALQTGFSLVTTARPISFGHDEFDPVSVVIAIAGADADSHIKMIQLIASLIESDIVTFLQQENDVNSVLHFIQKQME

Biological target: T1, GST-tagged GlpK of K. pneumoniae MGH 78578 (KPN04011) (Klebsiella pneumoniae MGH 78578) (UniProt A6TFR2)
T1 sequence: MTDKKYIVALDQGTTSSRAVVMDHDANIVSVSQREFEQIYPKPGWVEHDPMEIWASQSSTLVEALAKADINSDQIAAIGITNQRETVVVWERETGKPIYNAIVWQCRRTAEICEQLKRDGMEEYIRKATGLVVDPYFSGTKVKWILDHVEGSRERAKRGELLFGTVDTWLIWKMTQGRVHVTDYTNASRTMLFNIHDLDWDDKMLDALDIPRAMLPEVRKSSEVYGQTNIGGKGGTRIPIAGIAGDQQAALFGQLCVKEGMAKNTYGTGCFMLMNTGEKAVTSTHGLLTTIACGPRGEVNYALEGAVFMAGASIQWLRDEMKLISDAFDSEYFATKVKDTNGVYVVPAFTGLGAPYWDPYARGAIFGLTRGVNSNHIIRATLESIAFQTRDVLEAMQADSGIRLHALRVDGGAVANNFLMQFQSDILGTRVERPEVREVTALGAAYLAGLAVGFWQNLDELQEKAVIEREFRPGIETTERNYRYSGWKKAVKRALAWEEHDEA
Experiment: pull-down; supernatant of E. coli lysate with GST-KpGlpK (or GST) mixed with supernatant with His-tagged protein in STE buffer (10 mM Tris-HCl pH 8.0, 150 mM NaCl, 1 mM EDTA, 1% Triton X-100, 1 mM DTT), 4°C 1 h; captured on glutathione-Sepharose beads, washed with PBS pH 7.4; Western blot with anti-His or anti-GST

Substance: His-tagged KPN00353 (wild type) (from UniProt A6T5D4)
- binding: binds
